Experimental data: PubChem BioAssay AID1259405 (NCATS, 2018)
Shown is an unselected part of about 50,000 deposited reagents. In the full data, about 4,000 (8%) were called active. 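Mouse siRNA library applied to hamster cells; one well for each siRNA.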 A number with no mark means an inactive call. Reagents against one gene are numbered here.

- Purpose: 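Mouse-designed siRNAs used to find CHO productivity engineering targets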 (primary screen)
- Cells: Chinese hamster CHO-K1 ovary cells with stable secreted eGFP expression
- Reagent: single siRNA against mouse genes, 0.8 pmol siRNA per well (2 µl of 400 nM stock)
- Timing: 3 days
- Detection: 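Per-well intracellular GFP measured by laser scanning cytometry, plus viability from ATP luminescence, each relative to plate median of non-targeting control wells, in %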
- Direction: GFP, % of control: higher = more GFP per well, higher productivity; viability (ATP), % of control: higher = more viable cells (more ATP)
- Hit rule: 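Called active when intracellular GFP, relative to negative control, is at or above 120%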

Knock-down of Pcsk4 #1 resulted in: GFP, % of control 41.4; viability (ATP), % of control 49.9.
Against Pcsk4 #2, the entry reads GFP, % of control 72.1; viability (ATP), % of control 62.9.
After knock-down of Pcsk4 #3, the screen gave GFP, % of control 111; viability (ATP), % of control 109.
Against Ripply1 #1 the deposit lists GFP, % of control 50.2; viability (ATP), % of control 46.6.
Silencing of Ripply1 #2 came out at: GFP, % of control 24.7; viability (ATP), % of control 32.3.
Depletion of Ripply1 #3 came out at: GFP, % of control 72.6; viability (ATP), % of control 92.8.
Against Tmem117 #1, the values are GFP, % of control 62.8; viability (ATP), % of control 68.
Silencing of Tmem117 #2 gave: GFP, % of control 63.2; viability (ATP), % of control 83.6.
Tmem117 #3 gave GFP, % of control 62.6; viability (ATP), % of control 42.2.
Knock-down of Psmb4 #1 came out at: GFP, % of control 11.1; viability (ATP), % of control 4.77.
Psmb4 #2 gave GFP, % of control 29.5; viability (ATP), % of control 19.9.
Depletion of Psmb4 #3 gave: GFP, % of control 16.7; viability (ATP), % of control 6.19.
Knock-down of 4933436I01Rik #1 resulted in: GFP, % of control 30.7; viability (ATP), % of control 38.4.
4933436I01Rik #2 showed GFP, % of control 131 (active); viability (ATP), % of control 117.
4933436I01Rik #3 showed GFP, % of control 102; viability (ATP), % of control 125.
Ccdc12 #1 showed GFP, % of control 147 (active); viability (ATP), % of control 95.7.
After knock-down of Ccdc12 #2, the record shows GFP, % of control 56.6; viability (ATP), % of control 95.1.
For Ccdc12 #3, the values are GFP, % of control 74.5; viability (ATP), % of control 77.5.
With knock-down of Mela #1 the results were GFP, % of control 111; viability (ATP), % of control 75.1.
For Mela #2, the values are GFP, % of control 84.3; viability (ATP), % of control 53.6.
Against Mela #3, the values are GFP, % of control 91.3; viability (ATP), % of control 81.5.
Against Cfap20 #1, the values are GFP, % of control 58.3; viability (ATP), % of control 54.
Against Cfap20 #2, the entry reads GFP, % of control 73.2; viability (ATP), % of control 79.5.
For Cfap20 #3 the deposit lists GFP, % of control 68.6; viability (ATP), % of control 68.5.
With knock-down of Tubb6 #1 the results were GFP, % of control 84.1; viability (ATP), % of control 75.8.
Against Tubb6 #2, the entry reads GFP, % of control 94.9; viability (ATP), % of control 109.
Knock-down of Ppp1r37 #1 resulted in: GFP, % of control 137 (active); viability (ATP), % of control 174.
Ppp1r37 #2 scored GFP, % of control 66.7; viability (ATP), % of control 53.6.
Ppp1r37 #3 showed GFP, % of control 153 (active); viability (ATP), % of control 115.
With knock-down of Snx30 #1, the screen gave GFP, % of control 44.4; viability (ATP), % of control 68.2.
After knock-down of Snx30 #2, the record shows GFP, % of control 65.9; viability (ATP), % of control 62.7.
For Snx30 #3, the entry reads GFP, % of control 59.3; viability (ATP), % of control 77.4.
Against Tac1 #1, the entry reads GFP, % of control 67.4; viability (ATP), % of control 76.4.
After knock-down of Tac1 #2, the record shows GFP, % of control 74.3; viability (ATP), % of control 68.1.
Tac1 #3 showed GFP, % of control 84.4; viability (ATP), % of control 119.
With knock-down of Gpr141 #1, the screen gave GFP, % of control 168 (active); viability (ATP), % of control 58.5.
Gpr141 #2 gave GFP, % of control 75.2; viability (ATP), % of control 75.5.
Knock-down of Gpr141 #3 came out at: GFP, % of control 88.5; viability (ATP), % of control 85.2.
Depletion of Adamtsl5 #1 resulted in: GFP, % of control 36.5; viability (ATP), % of control 58.7.
Adamtsl5 #2 scored GFP, % of control 75.7; viability (ATP), % of control 119.
Adamtsl5 #3 scored GFP, % of control 98.5; viability (ATP), % of control 73.3.
Against Lair1 #1 the deposit lists GFP, % of control 38.2; viability (ATP), % of control 28.6.
Lair1 #2 scored GFP, % of control 30; viability (ATP), % of control 27.6.
For Lair1 #3 the deposit lists GFP, % of control 36.3; viability (ATP), % of control 34.7.
Against Mpg #1, the entry reads GFP, % of control 104; viability (ATP), % of control 81.4.
For Mpg #2 the deposit lists GFP, % of control 66.3; viability (ATP), % of control 67.3.
For Mpg #3, the values are GFP, % of control 59.2; viability (ATP), % of control 57.1.
With knock-down of Actn2 #1, the screen gave GFP, % of control 84.9; viability (ATP), % of control 73.2.
Against Actn2 #2 the deposit lists GFP, % of control 131 (active); viability (ATP), % of control 113.
Depletion of Pcmt1 #1 came out at: GFP, % of control 97.8; viability (ATP), % of control 90.1.
Against Pcmt1 #2, the entry reads GFP, % of control 141 (active); viability (ATP), % of control 147.
For Pcmt1 #3 the deposit lists GFP, % of control 124 (active); viability (ATP), % of control 134.

Records listed above marked active, once more:
4933436I01Rik #2 — GFP, % of control = 131 (active); viability (ATP), % of control = 117
Ccdc12 #1 — GFP, % of control = 147 (active); viability (ATP), % of control = 95.7
Ppp1r37 #1 — GFP, % of control = 137 (active); viability (ATP), % of control = 174
Ppp1r37 #3 — GFP, % of control = 153 (active); viability (ATP), % of control = 115
Gpr141 #1 — GFP, % of control = 168 (active); viability (ATP), % of control = 58.5
Actn2 #2 — GFP, % of control = 131 (active); viability (ATP), % of control = 113
Pcmt1 #2 — GFP, % of control = 141 (active); viability (ATP), % of control = 147
Pcmt1 #3 — GFP, % of control = 124 (active); viability (ATP), % of control = 134
